Experimental data as given in US20210315837A1, “CANNABINOIDS FOR THE TREATMENT OF GRAM-POSITIVE […] ANTIBIOTIC-RESISTANT BACTERIAL STRAINS” (priority 2018, published 2021).
Some results were stated once for a whole list of compounds, not compound by compound.

What follows are compounds tested on all 4 MRS strain. Conditions: little to no effect.
Assay type: cell-based, Staphylococcus aureus
For CCCCCc1cc(O)c(C/C=C(\C)CCC=C(C)C)c(O)c1 [CBG, Cannabigerol], the “FIC in combination with Methicillin” value was > 0.5.
In the case of C=C(C)[C@@H]1CCC(C)=C[C@H]1c1c(O)cc(CCCCC)cc1O [CBD, Cannabidiol], the “FIC in combination with Methicillin” value is reported as > 0.5.
CCCCCc1cc(O)c2c(c1)OC(C)(C)c1ccc(C)cc1-2 [CNB, Cannabinol] was tested, and the “FIC in combination with Methicillin” value was > 0.5.
